Test results reported in PubChem BioAssay AID493014 (National Center for Advancing Translational Sciences (NCATS), 2011).
The list shows a part of the results. The main result of the screen is listed elsewhere. These columns were measured beside it and carry no call. The list favours compounds with an active or inconclusive main result. Potencies come from curve fits of mixed quality, noted in brackets.

Test: qHTS Assay to Find Inhibitors of Chronic Active B-Cell Receptor Signaling
Conditions: ABC-DLBCL IkBa-CBG/CBR reporter, luminescence ratio (green luciferase fused to IkBa over red control in TMD8 lymphoma cells), 4 h
Summary of the method: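 Cell line TMD8 (human ABC DLBCL), stably expressing tet-inducible CBG68-IkBa fusion and CBR; IMDM/0.5% FBS; cpd up to 46 uM; dox induction, 4 h, 37C/5% CO2; dual luminescence; green/red ratio; MG132 control.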

[1] = measured here: CBR red luminescence, cell number
[2] = measured here: IkBa-CBG green luminescence

Row | SMILES | AC50 [1] | AC50 [2]
1 | COc1cc(C2c3c(-c4cc(Cl)c(C)cc4O)n[nH]c3C(=O)N2Cc2cccnc2)ccc1O (stereo not given) | 25.1 µM [falling, single point] | 
2 | COc1cc(/C=N/Nc2ccc(C(=O)O)cc2)ccc1O | 0.1 µM [falling, full curve, poor fit] | 0.891 µM [rising, full curve, poor fit]
3 | N#Cc1cnn2c(C(F)(F)F)cc(-c3ccccc3)nc12 | 1.26 µM [rising, full curve, poor fit] | 
4 | CCCc1[nH]nc2c1C(C1CCCCC1)C(C#N)=C(N)O2 (stereo not given) | 23.1 µM [falling, single point] | 
5 | Nn1c(SCC(=O)NCCC2=CCCCC2)nnc1C(F)(F)F | 4.11 µM [rising, full curve, poor fit] | 
6 | COc1cc(OC)c(-c2c3cc(O)c(=O)cc-3oc3cc(O)c(O)cc23)cc1OC | 16.4 µM [rising, partial curve] | 10.3 µM [rising, partial curve, poor fit]
7 | COc1ccc(CNC(=O)C(C)n2ccc3cc(S(=O)(=O)N4CCCCCC4)ccc32)cc1 (stereo not given) | 25.1 µM [falling, partial curve, poor fit] | 
8 | COC(=O)c1ccc(Oc2cc(C)nc(-n3nc(C)cc3C)n2)cc1 | 7.08 µM [rising, full curve] | 8.91 µM [falling, partial curve]
9 | COc1ccc2nc(-n3c(C)ccc3C)sc2c1 | 29.1 µM [falling, single point] | 
10 | CSCCC(N=C(NS(=O)(=O)c1ccc(C)cc1)c1ccccc1)C(=O)O (stereo not given) | 28.2 µM [rising, single point] | 
11 | O=C(O)C1CCCCC1C(=O)NCCc1ccncc1 (stereo not given) | 0.116 µM [falling, full curve, poor fit] | 
12 | CC1(NC(=O)Nc2cc([N+](=O)[O-])ccc2O)CCS(=O)(=O)C1 (stereo not given) | 20.6 µM [rising, single point] | 
13 | Nc1cccc(-c2cc3ccccc3oc2=O)c1 | 20 µM [falling, partial curve, poor fit] | 
14 | C/C(=N\OCC(=O)Nc1ccc(OC(F)(F)F)cc1)c1ccc2c(c1)OCCO2 | 6.51 µM [rising, single point] | 
15 | CC(=O)c1c(C)[nH]c(C(=O)Nc2ccc(C)c(C)c2)c1C | 0.651 µM [rising, partial curve, poor fit] | 
16 | N/C(Cc1ccc(Cl)cc1Cl)=N\OC(=O)c1cccs1 | 11.6 µM [rising, partial curve, poor fit] | 
17 | Cc1ccc(-n2nnnc2SCC(=O)Nc2ccc3c(c2)OCCO3)cc1C | 13 µM [rising, partial curve, poor fit] | 
18 | COc1ccc(/C=N/NC(=O)c2ccc3nc[nH]c3c2)cc1 | 3.98 µM [falling, partial curve, poor fit] | 
19 | CC1C(=O)NN=C1C(=O)N/N=C\c1ccc(O)cc1O (stereo not given) | 2.06 µM [falling, full curve] | 
20 | Cc1c(CCC(=O)N2CCC(C(=O)O)CC2)c(=O)oc2cc3oc4c(c3cc12)CCCC4 | 6.31 µM [rising, full curve] | 8.91 µM [falling, partial curve]

Row | SMILES | AC50 [1] | AC50 [2]
21 | COc1ccc(CNC(=O)CCCc2cn(C)c3ccccc23)c(OC)c1 | 35.5 µM [falling, single point] | 
22 | O=C(O)CCc1ccc(-c2cccs2)n1NC(=O)c1ccc(O)cc1 | 18.4 µM [falling, partial curve, poor fit] | 
23 | Cc1cc(=O)[nH]c(N/N=C/c2cn(CCC#N)nc2-c2ccccc2)n1 | 1.78 µM [falling, full curve, poor fit] | 
24 | O=C(Nc1cccc(C(F)(F)F)c1)c1cc(Br)cc2c1OCC2 | 10 µM [rising, partial curve] | 
25 | COc1ccc(CC2(CO)CCN(Cc3cccc4nccnc34)CC2)cc1 | 22.4 µM [falling, partial curve, poor fit] | 14.1 µM [falling, partial curve, poor fit]
26 | COc1cccc(NC(=O)c2ccc(S(=O)(=O)N3CCCCC3)cc2)c1 | 7.31 µM [falling, partial curve] | 
27 | COc1ccc2cc(C(=O)Nc3ccccc3)sc(=O)c2c1OC | 1.03 µM [rising, full curve] | 
28 | CCOC(=O)C1=C(N)OC2=C(C(=O)CC(C)(C)C2)C1c1ccccc1OCC#N (stereo not given) | 6.51 µM [falling, single point] | 
29 | COc1ccc(NC(=O)CSc2nncc3ccccc23)cc1 | 11.2 µM [falling, partial curve] | 
30 | Cn1nnnc1N=N/C(=N/Nc1ccccc1)c1ccccc1 | 2.82 µM [rising, partial curve] | 5.62 µM [falling, partial curve]
31 | CC1(c2ccc3c(c2)OCCO3)NC(=O)N(CC(=O)Nc2ccccc2F)C1=O (stereo not given) | 0.103 µM [rising, full curve, poor fit] | 
32 | COc1ccc(OC(=O)COc2cc(C)ccc2C)cc1 | 10 µM [rising, partial curve] | 
33 | COc1ccc(CC(=O)Nc2nc(-c3ccccc3)c(C(C)=O)s2)cc1OC | 3.98 µM [falling, partial curve, poor fit] | 
34 | S=C(NCCc1ccccc1)N/N=C/C1CCCCC1 | 17.8 µM [rising, single point] | 
35 | COCc1nc2c([nH]1)c(=O)n(C)c(=O)n2CC(C)C | 0.411 µM [falling, full curve] | 
36 | O=C(c1cccs1)n1nc(-c2cccnc2)nc1NCc1ccco1 | 35.5 µM [falling, single point] | 
37 | CCCC[n+]1ccn(-c2nc3ccccc3nc2[N-]S(=O)(=O)c2ccc(Br)cc2)c1 | 35.5 µM [rising, single point] | 
38 | O=S(=O)(Nc1cccc(-c2nnco2)c1)c1ccc(F)cc1F | 35.5 µM [falling, single point] | 
39 | CCOC(=O)c1sc(NC(=O)CSc2ncccn2)nc1C | 1.26 µM [falling, full curve] | 
